Results reported in publication PMC5814585, “Modulators of actin-myosin dissociation: basis for muscle type functional differences during fatigue” (American Journal of Physiology - Cell Physiology, 2017).

System: actin.PsoS1
Conditions: psoas

In the case of `O=P(O)(O)O` [Pi, inorganic phosphate], the “KPi tighter at pH 6.2 than at pH 7.0” value is reported as 30%.
